PubChem BioAssay AID720710 – VTT Finland | 2013
Screen: 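Knock-downs that leave cyclin E-high cells sensitive to replication stress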 (primary screen). System: human U-2 OS bone cancer cells, parental and a cyclin E (CCNE1) overexpressing line. Reagents: single siRNA against human genes, 1 µM siRNA in the printed spot mix. Time to read-out: 67 h. Challenge: half the arrays: hydroxyurea 2 mM for 16 h, then 3 h recovery; other arrays untreated. Detection: 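DNA synthesis measured as imaged EdU uptake per nucleus (DAPI) at 67 h, normalised to subgrid median and given as z-score versus non-targeting controls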. Scale: EdU z-score, cyclin E line, hydroxyurea and EdU z-score, parental, hydroxyurea: higher = more DNA synthesis than non-targeting controls.
This is one part, drawn at random, of about 1,380 deposited reagents. 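One array per condition without replicates; hydroxyurea arrays received 2 mM for 16 h plus 3 h recovery.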 Reagents against one gene are numbered here. Further read-outs or replicates are left out here.

Against NSD3 #1, the values are EdU z-score, cyclin E line, hydroxyurea -0.906; EdU z-score, parental, hydroxyurea -0.667. NSD3 #2 showed EdU z-score, cyclin E line, hydroxyurea 1.23; EdU z-score, parental, hydroxyurea 2.4. MAX #1 showed EdU z-score, cyclin E line, hydroxyurea -0.684; EdU z-score, parental, hydroxyurea 0.175. With knock-down of MAX #2 the results were EdU z-score, cyclin E line, hydroxyurea -0.206; EdU z-score, parental, hydroxyurea 1.82. Depletion of ATRIP #1 gave: EdU z-score, cyclin E line, hydroxyurea -1.89; EdU z-score, parental, hydroxyurea 0.448. ATRIP #2 showed EdU z-score, cyclin E line, hydroxyurea 1.88; EdU z-score, parental, hydroxyurea 3.06.

With knock-down of RAD17 #1 the results were EdU z-score, cyclin E line, hydroxyurea -1.4; EdU z-score, parental, hydroxyurea -2.09. With knock-down of RAD17 #2, the record shows EdU z-score, cyclin E line, hydroxyurea -0.835; EdU z-score, parental, hydroxyurea -1.26. For GTPBP4 #1 the deposit lists EdU z-score, cyclin E line, hydroxyurea -1.54; EdU z-score, parental, hydroxyurea 0.927. GTPBP4 #2 scored EdU z-score, cyclin E line, hydroxyurea 0.769; EdU z-score, parental, hydroxyurea 3.11. With knock-down of RINT1 #1, the record shows EdU z-score, cyclin E line, hydroxyurea -2.76; EdU z-score, parental, hydroxyurea -1.18. With knock-down of RINT1 #2 the results were EdU z-score, cyclin E line, hydroxyurea -1.73; EdU z-score, parental, hydroxyurea 1.68.

For CCN2 #1, the values are EdU z-score, cyclin E line, hydroxyurea 0.418; EdU z-score, parental, hydroxyurea 0.735. Against CCN2 #2, the values are EdU z-score, cyclin E line, hydroxyurea 0.419; EdU z-score, parental, hydroxyurea 1.51. RIF1 #1 scored EdU z-score, cyclin E line, hydroxyurea -0.31; EdU z-score, parental, hydroxyurea 0.449. Knock-down of RIF1 #2 resulted in: EdU z-score, cyclin E line, hydroxyurea 0.0724; EdU z-score, parental, hydroxyurea 1.91. After knock-down of CDK2AP1 #1, the record shows EdU z-score, cyclin E line, hydroxyurea -0.94; EdU z-score, parental, hydroxyurea -1.12. Knock-down of CDK2AP1 #2 resulted in: EdU z-score, cyclin E line, hydroxyurea 2.24; EdU z-score, parental, hydroxyurea 1.02.

Look-ups from the entries so far.
Under “EdU z-score, parental, hydroxyurea”, ATRIP #2 is entered as 3.06
CDK2AP1 #1, EdU z-score, parental, hydroxyurea → -1.12

Further entries follow:
CHD1 #1 gave EdU z-score, cyclin E line, hydroxyurea -2.79; EdU z-score, parental, hydroxyurea -0.4. CHD1 #2 gave EdU z-score, cyclin E line, hydroxyurea 0.653; EdU z-score, parental, hydroxyurea 0.66. Silencing of KMT5A #1 resulted in: EdU z-score, cyclin E line, hydroxyurea -0.428; EdU z-score, parental, hydroxyurea 1.23. KMT5A #2 showed EdU z-score, cyclin E line, hydroxyurea 0.24; EdU z-score, parental, hydroxyurea 2.61. For CUL4B #1 the deposit lists EdU z-score, cyclin E line, hydroxyurea 1.05; EdU z-score, parental, hydroxyurea 0.673. Silencing of CUL4B #2 gave: EdU z-score, cyclin E line, hydroxyurea 1.05; EdU z-score, parental, hydroxyurea 3.27.

For XRCC2 #1, the values are EdU z-score, cyclin E line, hydroxyurea -0.713; EdU z-score, parental, hydroxyurea 0.284. Knock-down of XRCC2 #2 came out at: EdU z-score, cyclin E line, hydroxyurea 1.75; EdU z-score, parental, hydroxyurea 0.826. Against H2BC8 #1, the values are EdU z-score, cyclin E line, hydroxyurea -0.701; EdU z-score, parental, hydroxyurea 0.713. Depletion of H2BC8 #2 gave: EdU z-score, cyclin E line, hydroxyurea 0.0823; EdU z-score, parental, hydroxyurea 1.16. CSNK1E #1 showed EdU z-score, cyclin E line, hydroxyurea -1.76; EdU z-score, parental, hydroxyurea -3.1. With knock-down of CSNK1E #2, the screen gave EdU z-score, cyclin E line, hydroxyurea 0.421; EdU z-score, parental, hydroxyurea 0.952.

RPA3 #1 showed EdU z-score, cyclin E line, hydroxyurea -1.33; EdU z-score, parental, hydroxyurea -0.101. For RPA3 #2, the entry reads EdU z-score, cyclin E line, hydroxyurea -0.672; EdU z-score, parental, hydroxyurea 2.83.
